# Data from patent US4246413A, “6-Oxamorphinans” (priority 1979, dated 1981).
# Format: in vivo
structure (smiles),measurement,setting,value
"CN1CC[C@]23c4c5ccc(O)c4O[C@H]2[C@@H](O)C=C[C@H]3[C@H]1C5.O=S(=O)(O)O [morphine sulfate, reference compound]","Agonist Activity ED50, Mice (PO)",PO,3.1 mg/kg
same,"Agonist Activity ED50, Mice (SC)",SC,0.26 mg/kg
